Data published in the supplement of paper PMC8256030.
Several values for one entry are separate records, joined by “and”; a condition that tells them apart may be missing. Equal entries are not always repeated. Some of the results follow. Repeats in this data set agree poorly, so a single value says little.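 HEK293T cells were given each compound shortly before transfection with a reporter in which red mCherry is followed by the SARS-CoV-2 frameshift element and then GFP in the −1 frame, so GFP appears only after frameshifting.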

Experiments:
[1] = tested on: SARS-CoV-2 -1 PRF reporter mCherry-FSE-GFP(-1); assay: mCherry (red) intensity as percent of control; higher = higher upstream reporter expression; settings: 10 µM; 24 h; HEK293T
[2] = tested on: SARS-CoV-2 -1 PRF reporter mCherry-FSE-GFP(-1); assay: percent effect, decrease of GFP/mCherry ratio (-1 PRF reporter) relative to controls; higher = stronger frameshift inhibition; settings: 10 µM; 24 h; HEK293T

Row | SMILES | mCherry [1] | percent effect [2]
1 | N[C@@H](Cn1ccc(=O)c(O)c1)C(=O)O | 126% and 141% | -5.48% and 1.23%
2 | CCN(CC)C(=O)N1CCN(C)CC1 [diethylcarbamazine] | 114% | -10.6%
3 | NS(=O)(=O)c1ccc(S(=O)(=O)Nc2cccc3c(Cl)c[nH]c23)cc1 [indisulam] | 107% | 0.284%
4 | Cc1[nH+]cc(COP(=O)([O-])[O-])c(CN(CCN(CC(=O)[O-])Cc2c(COP(=O)([O-])O)c[nH+]c(C)c2O)CC(=O)[O-])c1O.[Mn].[Na+].[Na+].[Na+] | 114% | -0.311%
5 | C[C@@H]1[C@H](O)[C@@H](C)/C=C/C=C/C=C/C=C/C=C/C=C/C=C/[C@H](O[C@@H]2O[C@H](C)[C@@H](O)[C@H](N)[C@@H]2O)C[C@@H]2O[C@](O)(C[C@@H](O)C[C@@H](O)[C@H](O)CC[C@@H](O)C[C@@H](O)CC(=O)O[C@H]1C)C[C@H](O)[C@H]2C(=O)O | 72.7% | -2.49%
6 | CCCCC(=O)O[C@]1(C(=O)CO)[C@@H](C)C[C@H]2[C@@H]3CCC4=CC(=O)C=C[C@]4(C)[C@@]3(F)[C@@H](O)C[C@@]21C | 95.1% | 0.515%
7 | CC(C)C(=O)Oc1ccc(CO)cc1[C@H](CCN(C(C)C)C(C)C)c1ccccc1 [Fesoterodine] | 125% | 0.863%
8 | COc1ccc(C(=O)Nc2c(Cl)cncc2Cl)cc1OC1CCCC1 [piclamilast] | 64.1% | -6.74%
9 | O=C1CN(/N=C/c2ccc([N+](=O)[O-])o2)C(=O)N1 [nitrofurantoin] | 99.5% and 87.2% | -1.31% and -1.77%
10 | CC(C)NCC(O)c1cc(O)cc(O)c1 (centres undefined) [orciprenaline] | 81.8% | -3.27%
11 | O=C1c2ccccc2S(=O)(=O)N1CCCCN1CCN(c2ncccn2)CC1 [ipsapirone] | 115% | 1.45%
12 | CCOC(=O)[C@H](CCc1ccccc1)N[C@@H](C)C(=O)N1C(=O)N(C)C[C@H]1C(=O)O [imidapril] | 77.9% | -1.97%

Another view of part of the listing above.
Row	SMILES	mCherry [1]	percent effect [2]
2	CCN(CC)C(=O)N1CCN(C)CC1 [diethylcarbamazine]	114%	-10.6%
3	NS(=O)(=O)c1ccc(S(=O)(=O)Nc2cccc3c(Cl)c[nH]c23)cc1 [indisulam]	107%	0.284%
